{"source": "PubChem BioAssay AID1259405 | NCATS, 2018", "test": "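Knock-downs that lift recombinant protein yield in hamster ovary cells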 (primary screen)", "cells": "Chinese hamster CHO-K1 ovary cells with stable secreted eGFP expression", "knock-down reagent": "single siRNA against mouse genes, 0.8 pmol siRNA per well (2 µl of 400 nM stock)", "time to read-out": "3 days", "measured": "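Percent of the per-plate non-targeting control median for intracellular GFP per well by laser scanning cytometry and for cell viability by ATP luminescence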", "direction": "GFP, % of control: higher = more GFP per well, higher productivity; viability (ATP), % of control: higher = more viable cells (more ATP)", "call rule": "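Called active when intracellular GFP, relative to negative control, is at or above 120%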", "note": "In all, the deposit lists about 50,000 reagents; below is a random part of them. Of all reagents, about 4,000 (8%) got an active call. 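Mouse siRNA library applied to hamster cells; one well for each siRNA.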 The numbers tell different reagents against one gene apart. Reagent sequences are not shown."}
{"Gene": "Daw1 (GeneID 71227)", "reagent no.": 1, "GFP, % of control": 99.8, "viability (ATP), % of control": 89.4, "activity call": "inactive"}
{"Gene": "Daw1 (GeneID 71227)", "reagent no.": 2, "GFP, % of control": 24, "viability (ATP), % of control": 16.5, "activity call": "inactive"}
{"Gene": "Daw1 (GeneID 71227)", "reagent no.": 3, "GFP, % of control": 77.2, "viability (ATP), % of control": 70.1, "activity call": "inactive"}
{"Gene": "Nkx2-6 (GeneID 18092)", "reagent no.": 1, "GFP, % of control": 51.1, "viability (ATP), % of control": 50.6, "activity call": "inactive"}
{"Gene": "Nkx2-6 (GeneID 18092)", "reagent no.": 2, "GFP, % of control": 70.7, "viability (ATP), % of control": 88.1, "activity call": "inactive"}
{"Gene": "Nkap (GeneID 67050)", "reagent no.": 1, "GFP, % of control": 87.3, "viability (ATP), % of control": 80, "activity call": "inactive"}
{"Gene": "Nkap (GeneID 67050)", "reagent no.": 2, "GFP, % of control": 119, "viability (ATP), % of control": 108, "activity call": "inactive"}
{"Gene": "Nkap (GeneID 67050)", "reagent no.": 3, "GFP, % of control": 66.6, "viability (ATP), % of control": 50.6, "activity call": "inactive"}
{"Gene": "Dusp19 (GeneID 68082)", "reagent no.": 1, "GFP, % of control": 77.1, "viability (ATP), % of control": 59.4, "activity call": "inactive"}
{"Gene": "Dusp19 (GeneID 68082)", "reagent no.": 2, "GFP, % of control": 102, "viability (ATP), % of control": 48, "activity call": "inactive"}
{"Gene": "Dusp19 (GeneID 68082)", "reagent no.": 3, "GFP, % of control": 100, "viability (ATP), % of control": 87.5, "activity call": "inactive"}
{"Gene": "Zfp212 (GeneID 232784)", "reagent no.": 1, "GFP, % of control": 97.5, "viability (ATP), % of control": 137, "activity call": "inactive"}
{"Gene": "Zfp212 (GeneID 232784)", "reagent no.": 2, "GFP, % of control": 73.5, "viability (ATP), % of control": 106, "activity call": "inactive"}
{"Gene": "Zfp212 (GeneID 232784)", "reagent no.": 3, "GFP, % of control": 49.5, "viability (ATP), % of control": 48.3, "activity call": "inactive"}
{"Gene": "Picalm (GeneID 233489)", "reagent no.": 1, "GFP, % of control": 82.8, "viability (ATP), % of control": 72.6, "activity call": "inactive"}
{"Gene": "Picalm (GeneID 233489)", "reagent no.": 2, "GFP, % of control": 91.8, "viability (ATP), % of control": 77.6, "activity call": "inactive"}
{"Gene": "Picalm (GeneID 233489)", "reagent no.": 3, "GFP, % of control": 88, "viability (ATP), % of control": 100, "activity call": "inactive"}
{"Gene": "Ttc5 (GeneID 219022)", "reagent no.": 1, "GFP, % of control": 60.6, "viability (ATP), % of control": 81.7, "activity call": "inactive"}
{"Gene": "Ttc5 (GeneID 219022)", "reagent no.": 2, "GFP, % of control": 58.4, "viability (ATP), % of control": 98.1, "activity call": "inactive"}
{"Gene": "Ttc5 (GeneID 219022)", "reagent no.": 3, "GFP, % of control": 45.7, "viability (ATP), % of control": 62.9, "activity call": "inactive"}
{"Gene": "Or1j18 (GeneID 258945)", "reagent no.": 1, "GFP, % of control": 114, "viability (ATP), % of control": 67.3, "activity call": "inactive"}
{"Gene": "Or1j18 (GeneID 258945)", "reagent no.": 2, "GFP, % of control": 100, "viability (ATP), % of control": 57.6, "activity call": "inactive"}
{"Gene": "Or1j18 (GeneID 258945)", "reagent no.": 3, "GFP, % of control": 72.4, "viability (ATP), % of control": 53.2, "activity call": "inactive"}

Next part (3 carried over from the part before).
{"Gene": "Or1j18 (GeneID 258945)", "reagent no.": 1, "GFP, % of control": 114, "viability (ATP), % of control": 67.3, "activity call": "inactive"}
{"Gene": "Or1j18 (GeneID 258945)", "reagent no.": 2, "GFP, % of control": 100, "viability (ATP), % of control": 57.6, "activity call": "inactive"}
{"Gene": "Or1j18 (GeneID 258945)", "reagent no.": 3, "GFP, % of control": 72.4, "viability (ATP), % of control": 53.2, "activity call": "inactive"}
{"Gene": "Nipa1 (GeneID 233280)", "reagent no.": 1, "GFP, % of control": 78.1, "viability (ATP), % of control": 68.4, "activity call": "inactive"}
{"Gene": "Nipa1 (GeneID 233280)", "reagent no.": 2, "GFP, % of control": 110, "viability (ATP), % of control": 112, "activity call": "inactive"}
{"Gene": "Nipa1 (GeneID 233280)", "reagent no.": 3, "GFP, % of control": 125, "viability (ATP), % of control": 72.5, "activity call": "active"}
{"Gene": "Coa8 (GeneID 68020)", "reagent no.": 1, "GFP, % of control": 60.5, "viability (ATP), % of control": 62, "activity call": "inactive"}
{"Gene": "Coa8 (GeneID 68020)", "reagent no.": 2, "GFP, % of control": 67, "viability (ATP), % of control": 92.7, "activity call": "inactive"}
{"Gene": "Coa8 (GeneID 68020)", "reagent no.": 3, "GFP, % of control": 92.1, "viability (ATP), % of control": 72.8, "activity call": "inactive"}
{"Gene": "Bcat1 (GeneID 12035)", "reagent no.": 1, "GFP, % of control": 109, "viability (ATP), % of control": 99.5, "activity call": "inactive"}
{"Gene": "Bcat1 (GeneID 12035)", "reagent no.": 2, "GFP, % of control": 63.5, "viability (ATP), % of control": 112, "activity call": "inactive"}
{"Gene": "Bcat1 (GeneID 12035)", "reagent no.": 3, "GFP, % of control": 105, "viability (ATP), % of control": 110, "activity call": "inactive"}
{"Gene": "Gabra6 (GeneID 14399)", "reagent no.": 1, "GFP, % of control": 92, "viability (ATP), % of control": 83.7, "activity call": "inactive"}
{"Gene": "Gabra6 (GeneID 14399)", "reagent no.": 2, "GFP, % of control": 61.6, "viability (ATP), % of control": 70.6, "activity call": "inactive"}
{"Gene": "Gabra6 (GeneID 14399)", "reagent no.": 3, "GFP, % of control": 82.8, "viability (ATP), % of control": 53.3, "activity call": "inactive"}
{"Gene": "H2-M10.5 (GeneID 224761)", "reagent no.": 1, "GFP, % of control": 40.5, "viability (ATP), % of control": 67.7, "activity call": "inactive"}
{"Gene": "H2-M10.5 (GeneID 224761)", "reagent no.": 2, "GFP, % of control": 75.8, "viability (ATP), % of control": 78.3, "activity call": "inactive"}
{"Gene": "H2-M10.5 (GeneID 224761)", "reagent no.": 3, "GFP, % of control": 65.5, "viability (ATP), % of control": 68.7, "activity call": "inactive"}
{"Gene": "Avpi1 (GeneID 69534)", "reagent no.": 1, "GFP, % of control": 53.7, "viability (ATP), % of control": 75.2, "activity call": "inactive"}
{"Gene": "Avpi1 (GeneID 69534)", "reagent no.": 2, "GFP, % of control": 72, "viability (ATP), % of control": 79.1, "activity call": "inactive"}
{"Gene": "Avpi1 (GeneID 69534)", "reagent no.": 3, "GFP, % of control": 32.1, "viability (ATP), % of control": 24.3, "activity call": "inactive"}
{"Gene": "Myo6 (GeneID 17920)", "reagent no.": 1, "GFP, % of control": 72.7, "viability (ATP), % of control": 62.9, "activity call": "inactive"}
{"Gene": "Myo6 (GeneID 17920)", "reagent no.": 2, "GFP, % of control": 102, "viability (ATP), % of control": 85, "activity call": "inactive"}
{"Gene": "Myo6 (GeneID 17920)", "reagent no.": 3, "GFP, % of control": 98.7, "viability (ATP), % of control": 84.6, "activity call": "inactive"}
{"Gene": "Aip (GeneID 11632)", "reagent no.": 1, "GFP, % of control": 85.4, "viability (ATP), % of control": 62.3, "activity call": "inactive"}
{"Gene": "Aip (GeneID 11632)", "reagent no.": 2, "GFP, % of control": 127, "viability (ATP), % of control": 91, "activity call": "active"}
{"Gene": "Aip (GeneID 11632)", "reagent no.": 3, "GFP, % of control": 71.2, "viability (ATP), % of control": 124, "activity call": "inactive"}
{"Gene": "Mettl21a (GeneID 67099)", "reagent no.": 1, "GFP, % of control": 67.5, "viability (ATP), % of control": 77.9, "activity call": "inactive"}
{"Gene": "Mettl21a (GeneID 67099)", "reagent no.": 2, "GFP, % of control": 50.9, "viability (ATP), % of control": 64.3, "activity call": "inactive"}
{"Gene": "Mettl21a (GeneID 67099)", "reagent no.": 3, "GFP, % of control": 55.9, "viability (ATP), % of control": 61.6, "activity call": "inactive"}
{"Gene": "Zfp326 (GeneID 54367)", "reagent no.": 1, "GFP, % of control": 56.7, "viability (ATP), % of control": 51.3, "activity call": "inactive"}
{"Gene": "Zfp326 (GeneID 54367)", "reagent no.": 2, "GFP, % of control": 79.5, "viability (ATP), % of control": 83.7, "activity call": "inactive"}
{"Gene": "Zfp326 (GeneID 54367)", "reagent no.": 3, "GFP, % of control": 85.9, "viability (ATP), % of control": 99.8, "activity call": "inactive"}
